PubChem BioAssay AID743454, Peter MacCallum Cancer Centre | 2014

Screen: 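Knock-downs lowering viability or raising caspase 3/7 activity in vorinostat-treated resistant cells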 (primary screen)
System: human HCT116-VR colon cancer cells, selected for vorinostat resistance
Knock-down reagent: siRNA pool against human genes, 40 nM siRNA pool
Timing: vorinostat for 24 h, read-out about 72 h after transfection
Challenge: vorinostat at 2.5 µM final
Read-out: 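Two measures, CellTiter-Fluor viability and luminescent caspase 3/7 activity, each as fold change against same-plate mock wells, mean of duplicates, then screen-wide robust z-score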
Scale: viability robust z-score: higher = more viable cells than screen typical; caspase robust z-score: higher = more caspase 3/7 activity than screen typical
Call rule: 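a knock-down is a hit when classed RV1 or RV2 for lowered viability, or CA1 or CA2 for caspase activation; those lethal without drug were dropped; hits were retested singly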
The whole screen tested about 18,000 reagents; this is a random part of them. Of all reagents, 450 (2.5%) were called active. 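Single biological run; no consistent viability z cut-off exists, so the class columns, not z-scores, define the calls.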 Reagent sequences are not shown.

gene symbol	viability hit class	caspase hit class	viability robust z-score	caspase robust z-score	outcome
GSPT1 (GeneID 2935)	no change	no change	-2.86	0.12	inactive
KMT2A (GeneID 4297)	no change	no change	0.97	-0.16	inactive
CFAP57 (GeneID 149465)	no change	no change	1.5	-0.34	inactive
RBL2 (GeneID 5934)	no change	no change	0.41	-0.34	inactive
ACKR2 (GeneID 1238)	no change	no change	1.57	0.84	inactive
ITGB4 (GeneID 3691)	no change	no change	-0.54	0.24	inactive
CDKL1 (GeneID 8814)	no change	no change	-0.22	0.82	inactive
DDX24 (GeneID 57062)	no change	no change	-0.92	1.48	inactive
AMPD1 (GeneID 270)	no change	no change	0.54	-0.5	inactive
ALKBH1 (GeneID 8846)	no change	no change	0.05	-0.17	inactive
CPNE7 (GeneID 27132)	no change	no change	-0.45	0.5	inactive
SNAPC5 (GeneID 10302)	no change	no change	1.08	-0.23	inactive
TVP23B (GeneID 51030)	no change	no change	0.55	0.7	inactive
PKHD1L1 (GeneID 93035)	no change	no change	0.2	-0.84	inactive
PGM5 (GeneID 5239)	no change	no change	0.08	0.56	inactive
GNG12 (GeneID 55970)	no change	no change	-0.58	0.19	inactive
PRR3 (GeneID 80742)	no change	no change	0.36	-0.61	inactive
POTEG (GeneID 404785)	no change	no change	-0.78	1.34	inactive
ZNF606 (GeneID 80095)	no change	no change	-1.34	3.22	inactive
OR4E2 (GeneID 26686)	no change	no change	0.43	0.2	inactive
RBM6 (GeneID 10180)	no change	no change	1.59	-1.06	inactive
HEPACAM (GeneID 220296)	no change	no change	-0.46	-0.57	inactive
ABCD2 (GeneID 225)	no change	no change	0.99	-0.77	inactive
DNAH12 (GeneID 201625)	no change	no change	-0.14	-0.38	inactive
SEMA5A (GeneID 9037)	no change	no change	0.44	-0.73	inactive
CRBN (GeneID 51185)	no change	no change	-0.69	2.08	inactive
TGFB1I1 (GeneID 7041)	no change	no change	0.09	-1.05	inactive
SUMO1 (GeneID 7341)	no change	no change	-2.17	-0.86	inactive
PAGE1 (GeneID 8712)	no change	no change	1.78	0.3	inactive
TMED8 (GeneID 283578)	no change	no change	1	-0.5	inactive
OGFOD2 (GeneID 79676)	no change	no change	0.3	0.09	inactive
CAMK2N1 (GeneID 55450)	no change	no change	0.27	3.48	inactive
MT1HL1 (GeneID 645745)	no change	no change	0.95	-0.62	inactive
RBBP7 (GeneID 5931)	no change	no change	0.15	0.4	inactive
ZNF614 (GeneID 80110)	no change	no change	0.46	-0.74	inactive
CIITA (GeneID 4261)	no change	no change	-0.27	0.56	inactive
TRIM5 (GeneID 85363)	no change	no change	0.56	-0.35	inactive
OPA1 (GeneID 4976)	no change	no change	0.52	-0.66	inactive
CCDC18 (GeneID 343099)	no change	no change	-0.84	-1.07	inactive

A stretch from the list above:
gene symbol	viability hit class	caspase hit class	viability robust z-score	caspase robust z-score	outcome
RBL2 (GeneID 5934)	no change	no change	0.41	-0.34	inactive
ACKR2 (GeneID 1238)	no change	no change	1.57	0.84	inactive
ITGB4 (GeneID 3691)	no change	no change	-0.54	0.24	inactive
CDKL1 (GeneID 8814)	no change	no change	-0.22	0.82	inactive
